Test results from PMC3292467, “Comparison between ^68Ga-bombesin (^68Ga-BZH3) and the cRGD tetramer ^68Ga-RGD4 studies in an experimental nude rat model with a neuroendocrine pancreatic tumor cell line” (EJNMMI Research, 2011).
Several values for one entry are separate records, joined by “and”; a condition that tells them apart may be missing. Equal entries are not always repeated. Square brackets hold non-standard residues; d marks the D form. Peptide text beside a SMILES is read from it. * marks the point of attachment. DOTA = O=C(O)CN1CCN(CC(=O)O)CCN(CC(=O)*)CCN(CC(=O)O)CC1; 2Thi = N[C@@H](Cc1cccs1)C(=O)O; Nle = CCCC[C@H](N)C(=O)O; AEEA = NCCOCCOCC(=O)O; βAla = NCCC(=O)O

System: AR42J tumor
Assay: Fractal dimension, non-compartmental analysis of dynamic PET time-activity data, AR42J tumor
Format: in vivo, rat
Details: subdivision 7 × 7, maximal SUV 20, scale 0 to 2, n = 5 (BZH3), n = 4 (RGD4)

Compound: CCCC[C@H](NC(=O)[C@H](Cc1cccs1)NC(=O)[C@H](Cc1c[nH]cn1)NC(=O)CCNC(=O)[C@@H](NC(=O)[C@H](C)NC(=O)[C@H](Cc1c[nH]c2ccccc12)NC(=O)[C@H](CCC(N)=O)NC(=O)[C@@H](Cc1ccc(O)cc1)NC(=O)COCCOCCNC(=O)COCCOCCNC(=O)CN1CCN(CC(=O)O)CCN(CC(=O)O)CCN(CC(=O)O)CC1)C(C)C)C(N)=O [^68Ga-BZH3, DOTA-PEG2-[D-Tyr^6 -β-Ala^11 -Thi^13 -Nle^14]BN(6-14) amide, metal not drawn] ({DOTA-AEEA-AEEA}-[dY]QWAV[βAla]H[2Thi][Nle]-NH2)
- FD (fractal dimension) (maximum): 1.1495
- FD (fractal dimension) (mean): 1.1198
- FD (fractal dimension) (median, between tracers P 0.0275*): 1.142 and 1.1425
- FD (fractal dimension) (minimum): 1.0665
